From US20260231590A1, “AROMATIC COMPOUND, ORGANIC SEMICONDUCTOR LAYER AND ORGANIC THIN FILM TRANSISTOR” (TOSOH CORPORATION, priority 2023, published 2026)
Some entries share one result that the patent states for a list of compounds.

Assay: Evaluation of solubility in organic solvents
Type: physicochemical
Details: by the method in Example 24
Protocol: Toluene and n-octane were each added to predetermined amounts of the aromatic compounds obtained in Examples 1, 4, 5, 6, 7, 8, 9, 12, 13, 14, 15, 18, 19, 20, 22 and 23 to give compositions for film formation. The weight of each organic solvent required to completely dissolve the aromatic compound at room temperature (25° C.) was measured, and solubility (% by weight) was calculated. The determination of the point of complete dissolution was confirmed by visual observation.

| Structure (SMILES) | solubility in octane |
| --- | --- |
| c1ccc(CCc2cc3ccc4cc5c(ccc6cc(CCc7ccccc7)sc65)cc4c3s2)cc1 [2,8-di(2-phenylethyl) anthra[1,2-b:5,6-b′]dithiophene, reference compound] | less than 0.10 % by weight |
| Cc1ccc(CCc2cc3ccc4cc5c(ccc6ccsc65)cc4c3s2)cc1 [2-(2-(4-methylphenyl)ethyl) anthra[1,2-b:5,6-b′]dithiophene, reference compound] | less than 0.10 % by weight |
| c1ccc(CCc2cc3ccc4cc5c(ccc6ccsc65)cc4c3s2)cc1 [2-(2-phenylethyl) anthra[1,2-b:5,6-b′]dithiophene, reference compound] | less than 0.10 % by weight |
